Laboratory results reported in publication doi:10.1101/2021.11.24.469908.
These are yes or no findings as the source states them, for the method shown. In cells and extracts the contact can be indirect. Some results given as binding are weak or reduced against the parent protein; the word gives no strength.

Amino acid sequences for entries named in this document (tags omitted).
UniProt P32121: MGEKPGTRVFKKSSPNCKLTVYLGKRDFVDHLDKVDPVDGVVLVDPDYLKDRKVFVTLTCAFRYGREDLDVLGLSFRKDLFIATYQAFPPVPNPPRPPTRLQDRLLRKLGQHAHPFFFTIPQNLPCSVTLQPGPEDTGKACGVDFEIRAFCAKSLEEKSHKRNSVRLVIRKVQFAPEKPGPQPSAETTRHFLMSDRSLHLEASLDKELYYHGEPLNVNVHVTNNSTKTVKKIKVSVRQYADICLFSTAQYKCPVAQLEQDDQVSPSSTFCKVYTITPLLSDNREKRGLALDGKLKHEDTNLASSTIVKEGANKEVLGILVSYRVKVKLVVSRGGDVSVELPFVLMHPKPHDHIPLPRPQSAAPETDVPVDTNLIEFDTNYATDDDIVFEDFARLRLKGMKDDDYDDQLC

T1: SNAP-GLP-1R (INS-1 832/3 stable line) (human), P43220
T1 chain: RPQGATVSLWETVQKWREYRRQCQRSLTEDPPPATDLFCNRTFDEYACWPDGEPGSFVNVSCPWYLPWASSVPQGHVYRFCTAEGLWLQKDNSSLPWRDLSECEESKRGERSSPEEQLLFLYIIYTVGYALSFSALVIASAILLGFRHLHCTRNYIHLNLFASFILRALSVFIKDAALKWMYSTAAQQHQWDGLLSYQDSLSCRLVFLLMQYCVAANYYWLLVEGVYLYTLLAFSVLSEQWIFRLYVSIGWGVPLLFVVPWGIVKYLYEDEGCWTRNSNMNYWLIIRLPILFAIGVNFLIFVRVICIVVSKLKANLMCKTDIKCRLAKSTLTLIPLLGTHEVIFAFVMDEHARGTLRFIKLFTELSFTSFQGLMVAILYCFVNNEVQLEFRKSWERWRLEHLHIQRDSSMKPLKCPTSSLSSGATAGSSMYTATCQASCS

B1: SNAP-GLP-1R (INS-1 832/3 stable line), P43220 24-463 (receptor)
chain: T1 chain

What was measured:
[1] = target: SNAPf-GLP-1R-SmBiT (human) (UniProt P43220); test: split reporter
[2] = target: T1, SNAP-GLP-1R (INS-1 832/3 stable line) …; test: FRET or BRET; conditions: remark: other sources report otherwise

| Molecule | binding [1] | binding [2] |
| --- | --- | --- |
| LgBiT-β-arrestin-2 (from UniProt P32121 1-409) | binds |  |
| B1 |  | binds |
